From the supplement of paper PMC12823440, “Inhibitors supercharge kinase turnover through native proteolytic circuits” (Nature, 2025)
Where a name gives a salt, the structure may show the parent alone. This is one part of the list. Hit calls seldom repeat between salt and free forms of one compound.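 Kinases were expressed as nanoluciferase fusions in K562 cells and luminescence was read every 4 h between 2 and 18 h as percent of control, DMSO set to 100% and a positive control to 0%. A time point counts as decreased when the signal drops significantly (2 sigma). The hit call is the authors' own, does not follow from the count of time points alone, and its rule is not shown.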

Sequences of proteins named here, by UniProt entry; tags and fusion partners are left off. A change or cut given only in a name is not applied to a line headed by its entry.
UniProt Q15208: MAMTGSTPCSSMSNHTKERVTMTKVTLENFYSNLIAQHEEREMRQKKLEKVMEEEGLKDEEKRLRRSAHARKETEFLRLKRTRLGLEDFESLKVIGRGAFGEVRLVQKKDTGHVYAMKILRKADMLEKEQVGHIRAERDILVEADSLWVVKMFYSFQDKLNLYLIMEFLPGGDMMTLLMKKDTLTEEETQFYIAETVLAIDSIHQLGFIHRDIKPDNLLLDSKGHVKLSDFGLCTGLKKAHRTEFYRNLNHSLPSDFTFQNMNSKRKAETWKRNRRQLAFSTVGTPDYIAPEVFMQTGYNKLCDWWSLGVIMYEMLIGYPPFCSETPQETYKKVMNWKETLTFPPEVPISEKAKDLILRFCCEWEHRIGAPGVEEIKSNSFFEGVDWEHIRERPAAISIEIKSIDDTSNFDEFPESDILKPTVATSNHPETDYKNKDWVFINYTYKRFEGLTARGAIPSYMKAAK
UniProt P42680: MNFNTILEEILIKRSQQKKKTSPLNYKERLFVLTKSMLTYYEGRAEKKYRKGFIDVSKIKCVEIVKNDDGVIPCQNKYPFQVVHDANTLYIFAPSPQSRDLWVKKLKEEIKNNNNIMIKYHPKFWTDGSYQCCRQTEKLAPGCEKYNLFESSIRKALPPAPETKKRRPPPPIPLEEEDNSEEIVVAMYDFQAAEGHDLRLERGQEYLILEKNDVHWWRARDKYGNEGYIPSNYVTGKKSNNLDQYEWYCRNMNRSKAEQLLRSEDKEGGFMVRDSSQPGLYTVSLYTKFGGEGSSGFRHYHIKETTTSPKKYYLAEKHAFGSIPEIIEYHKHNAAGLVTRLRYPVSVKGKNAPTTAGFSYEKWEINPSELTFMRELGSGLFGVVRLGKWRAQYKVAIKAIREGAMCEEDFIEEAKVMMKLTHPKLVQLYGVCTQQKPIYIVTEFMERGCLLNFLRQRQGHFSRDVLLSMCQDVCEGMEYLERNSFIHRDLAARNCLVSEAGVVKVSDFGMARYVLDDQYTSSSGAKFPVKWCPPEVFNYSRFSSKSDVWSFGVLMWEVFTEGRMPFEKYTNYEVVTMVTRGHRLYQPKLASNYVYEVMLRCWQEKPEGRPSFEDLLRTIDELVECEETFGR
UniProt P29597: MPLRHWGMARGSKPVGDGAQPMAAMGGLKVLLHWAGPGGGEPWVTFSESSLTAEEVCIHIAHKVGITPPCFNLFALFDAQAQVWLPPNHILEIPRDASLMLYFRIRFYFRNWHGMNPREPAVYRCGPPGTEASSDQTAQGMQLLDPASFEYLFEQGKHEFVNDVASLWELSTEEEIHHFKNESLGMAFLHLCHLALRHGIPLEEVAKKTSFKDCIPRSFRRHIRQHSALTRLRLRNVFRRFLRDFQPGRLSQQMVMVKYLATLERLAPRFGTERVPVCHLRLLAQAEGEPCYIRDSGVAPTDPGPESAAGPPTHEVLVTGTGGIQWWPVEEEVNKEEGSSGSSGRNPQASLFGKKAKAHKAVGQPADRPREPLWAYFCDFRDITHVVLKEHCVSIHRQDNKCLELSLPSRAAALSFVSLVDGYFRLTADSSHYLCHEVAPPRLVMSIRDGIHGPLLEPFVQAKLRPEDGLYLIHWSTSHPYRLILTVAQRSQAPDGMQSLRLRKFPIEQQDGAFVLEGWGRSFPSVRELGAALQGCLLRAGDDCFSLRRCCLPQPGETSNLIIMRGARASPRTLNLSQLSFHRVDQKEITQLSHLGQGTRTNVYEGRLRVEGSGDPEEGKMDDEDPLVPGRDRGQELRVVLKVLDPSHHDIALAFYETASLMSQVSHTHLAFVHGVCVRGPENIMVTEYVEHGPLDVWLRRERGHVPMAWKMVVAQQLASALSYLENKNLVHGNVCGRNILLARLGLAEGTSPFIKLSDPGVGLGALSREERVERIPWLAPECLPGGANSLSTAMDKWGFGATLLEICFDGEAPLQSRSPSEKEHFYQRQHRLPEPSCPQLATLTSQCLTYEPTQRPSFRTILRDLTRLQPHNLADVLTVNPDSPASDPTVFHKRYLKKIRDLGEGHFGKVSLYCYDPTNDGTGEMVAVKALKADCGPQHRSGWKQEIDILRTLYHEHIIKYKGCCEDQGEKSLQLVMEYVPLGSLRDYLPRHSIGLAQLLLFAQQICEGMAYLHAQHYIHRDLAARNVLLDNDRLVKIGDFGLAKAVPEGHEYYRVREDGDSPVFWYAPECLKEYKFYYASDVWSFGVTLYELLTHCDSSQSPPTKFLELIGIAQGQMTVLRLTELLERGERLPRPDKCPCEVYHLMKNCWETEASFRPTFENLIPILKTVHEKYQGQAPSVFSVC
UniProt Q6PHR2: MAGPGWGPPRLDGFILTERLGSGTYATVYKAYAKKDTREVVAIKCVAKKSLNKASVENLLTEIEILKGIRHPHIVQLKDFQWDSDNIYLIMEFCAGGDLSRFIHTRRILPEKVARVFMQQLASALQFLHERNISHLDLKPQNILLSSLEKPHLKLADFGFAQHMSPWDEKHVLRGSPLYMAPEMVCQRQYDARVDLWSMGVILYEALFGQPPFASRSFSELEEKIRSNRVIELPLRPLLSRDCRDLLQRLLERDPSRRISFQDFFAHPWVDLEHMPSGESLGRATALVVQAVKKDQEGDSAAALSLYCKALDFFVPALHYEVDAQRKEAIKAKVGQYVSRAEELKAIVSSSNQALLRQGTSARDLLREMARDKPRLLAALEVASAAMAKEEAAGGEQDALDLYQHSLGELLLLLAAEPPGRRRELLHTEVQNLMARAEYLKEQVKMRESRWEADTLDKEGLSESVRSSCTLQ
UniProt P07947, whole entry, looked up: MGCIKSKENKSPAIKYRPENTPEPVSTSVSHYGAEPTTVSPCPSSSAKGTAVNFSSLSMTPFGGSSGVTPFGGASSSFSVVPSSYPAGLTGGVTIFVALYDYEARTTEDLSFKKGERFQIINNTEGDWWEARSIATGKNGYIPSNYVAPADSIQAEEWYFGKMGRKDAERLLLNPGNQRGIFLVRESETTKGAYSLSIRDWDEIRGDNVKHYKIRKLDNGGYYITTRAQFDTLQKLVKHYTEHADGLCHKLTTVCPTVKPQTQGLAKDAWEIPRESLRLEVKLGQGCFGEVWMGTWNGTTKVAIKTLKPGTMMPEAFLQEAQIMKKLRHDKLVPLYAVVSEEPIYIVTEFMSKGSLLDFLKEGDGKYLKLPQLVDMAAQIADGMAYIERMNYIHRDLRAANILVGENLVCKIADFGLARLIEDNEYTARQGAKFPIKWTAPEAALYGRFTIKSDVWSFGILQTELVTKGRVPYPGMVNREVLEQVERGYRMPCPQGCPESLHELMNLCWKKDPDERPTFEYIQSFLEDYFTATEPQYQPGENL
UniProt P43403: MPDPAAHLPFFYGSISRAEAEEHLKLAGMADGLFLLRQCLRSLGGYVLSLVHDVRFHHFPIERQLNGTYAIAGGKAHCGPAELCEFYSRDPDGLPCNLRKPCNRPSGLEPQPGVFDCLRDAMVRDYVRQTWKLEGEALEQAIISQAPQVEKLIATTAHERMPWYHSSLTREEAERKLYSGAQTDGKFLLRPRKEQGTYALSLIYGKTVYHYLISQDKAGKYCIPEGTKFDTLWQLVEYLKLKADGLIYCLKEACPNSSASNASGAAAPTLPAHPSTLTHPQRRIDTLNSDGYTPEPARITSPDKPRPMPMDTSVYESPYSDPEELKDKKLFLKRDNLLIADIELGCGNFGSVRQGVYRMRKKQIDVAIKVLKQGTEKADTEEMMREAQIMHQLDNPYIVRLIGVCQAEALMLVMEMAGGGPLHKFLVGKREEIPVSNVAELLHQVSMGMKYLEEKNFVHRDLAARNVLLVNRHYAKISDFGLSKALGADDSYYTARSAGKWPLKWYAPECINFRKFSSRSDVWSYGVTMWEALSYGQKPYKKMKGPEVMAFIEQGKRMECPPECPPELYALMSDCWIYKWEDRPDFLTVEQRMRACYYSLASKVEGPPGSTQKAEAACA
UniProt P00519, whole entry: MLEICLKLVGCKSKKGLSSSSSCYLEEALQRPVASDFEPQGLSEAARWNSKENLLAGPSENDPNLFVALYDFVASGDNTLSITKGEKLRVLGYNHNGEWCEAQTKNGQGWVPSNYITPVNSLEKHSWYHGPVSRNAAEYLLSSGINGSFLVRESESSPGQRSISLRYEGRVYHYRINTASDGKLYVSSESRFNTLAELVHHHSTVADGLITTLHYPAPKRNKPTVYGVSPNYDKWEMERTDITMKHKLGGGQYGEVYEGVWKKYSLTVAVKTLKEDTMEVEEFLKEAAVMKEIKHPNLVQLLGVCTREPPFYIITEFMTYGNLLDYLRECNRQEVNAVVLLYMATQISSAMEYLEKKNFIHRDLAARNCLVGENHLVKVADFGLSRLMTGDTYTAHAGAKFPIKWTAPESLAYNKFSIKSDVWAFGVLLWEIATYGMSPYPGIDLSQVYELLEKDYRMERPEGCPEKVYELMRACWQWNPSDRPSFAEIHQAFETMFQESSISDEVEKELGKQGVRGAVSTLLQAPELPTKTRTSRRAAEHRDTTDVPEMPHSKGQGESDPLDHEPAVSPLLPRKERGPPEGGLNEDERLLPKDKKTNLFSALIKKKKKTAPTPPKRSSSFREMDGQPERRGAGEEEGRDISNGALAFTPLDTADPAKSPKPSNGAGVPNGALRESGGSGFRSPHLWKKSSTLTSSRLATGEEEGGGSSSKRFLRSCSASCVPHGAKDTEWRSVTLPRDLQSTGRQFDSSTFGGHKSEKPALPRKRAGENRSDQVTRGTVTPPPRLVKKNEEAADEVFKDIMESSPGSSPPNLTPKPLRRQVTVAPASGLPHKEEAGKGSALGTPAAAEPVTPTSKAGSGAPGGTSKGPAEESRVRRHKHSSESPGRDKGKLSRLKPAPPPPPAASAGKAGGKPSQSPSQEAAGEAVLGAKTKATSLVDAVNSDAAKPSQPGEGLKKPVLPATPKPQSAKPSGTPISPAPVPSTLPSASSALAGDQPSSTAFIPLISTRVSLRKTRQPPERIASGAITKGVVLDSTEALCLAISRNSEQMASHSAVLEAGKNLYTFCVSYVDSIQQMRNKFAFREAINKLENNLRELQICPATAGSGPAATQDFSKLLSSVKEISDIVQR
UniProt P31749: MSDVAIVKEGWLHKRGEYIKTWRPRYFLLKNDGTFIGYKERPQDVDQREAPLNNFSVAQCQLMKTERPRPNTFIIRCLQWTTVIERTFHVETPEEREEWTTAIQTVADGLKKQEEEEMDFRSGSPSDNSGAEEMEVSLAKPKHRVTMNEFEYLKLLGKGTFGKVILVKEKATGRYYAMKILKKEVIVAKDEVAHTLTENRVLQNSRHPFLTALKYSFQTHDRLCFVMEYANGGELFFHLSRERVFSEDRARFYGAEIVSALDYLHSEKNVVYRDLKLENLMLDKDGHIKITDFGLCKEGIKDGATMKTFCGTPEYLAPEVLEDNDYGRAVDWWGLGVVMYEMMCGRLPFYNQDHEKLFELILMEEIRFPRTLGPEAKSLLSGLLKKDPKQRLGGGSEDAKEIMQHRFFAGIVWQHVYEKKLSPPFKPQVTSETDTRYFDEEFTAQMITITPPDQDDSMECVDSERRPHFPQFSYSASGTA

Tests used:
Settings in all cases: K562; 2-18 h
STK38 = STK38 (UniProt Q15208); experiment: kinase-Nluc reporter destabilization hit call (1 = scored as downregulated) (binary); higher = compound decreases kinase abundance
SYK = SYK (UniProt P43405); experiment: as above
TEC = TEC (UniProt P42680); experiment: as above
TYK2 = TYK2 (UniProt P29597); experiment: as above
ULK3 = ULK3 (UniProt Q6PHR2); experiment: as above
YES1 = YES1 (UniProt P07947); experiment: as above
ZAK = ZAK (UniProt Q9NYL2); experiment: as above
ZAP70 = ZAP70 (UniProt P43403); experiment: as above
ABL1 = ABL1 (UniProt P00519); experiment: number of time points (of 5) at which kinase-Nluc abundance scored as decreased, DMSO-normalised (count); higher = more persistent destabilization
AKT1 = AKT1 (UniProt P31749); experiment: as above

| SMILES | kinase-Nluc reporter destabilization hit call (STK38) | kinase-Nluc reporter destabilization hit call (SYK) | kinase-Nluc reporter destabilization hit call (TEC) | kinase-Nluc reporter destabilization hit call (TYK2) | kinase-Nluc reporter destabilization hit call (ULK3) | kinase-Nluc reporter destabilization hit call (YES1) | kinase-Nluc reporter destabilization hit call (ZAK) | kinase-Nluc reporter destabilization hit call (ZAP70) | number of time points (ABL1) | number of time points (AKT1) |
| --- | --- | --- | --- | --- | --- | --- | --- | --- | --- | --- |
| COc1c(O)cc2oc3cc(O)c(CC=C(C)C)c(O)c3c(=O)c2c1CCC(C)(C)O [Garcinone D] (2.5 µM) | inactive: 0 | inactive: 0 | inactive: 0 | inactive: 0 | inactive: 0 | inactive: 0 | inactive: 0 | inactive: 0 | 0 | 0 |
| Nc1cc(C(F)F)c(-c2nc(N3C4CCC3COC4)nc(N3C4CCC3COC4)n2)cn1 (2.5 µM) | inactive: 0 | inactive: 0 | inactive: 0 | inactive: 0 | inactive: 0 | inactive: 0 | inactive: 0 | inactive: 0 | 0 | 0 |
| Nc1n[nH]c2cc(-c3ccc(=O)n(Cc4cccc(Cl)c4)c3)ccc12 (10 µM) | inactive: 0 | inactive: 0 | inactive: 0 | inactive: 0 | inactive: 0 | inactive: 0 | inactive: 0 | inactive: 0 | 0 | 0 |
| Cc1cccc(-c2[nH]ncc2-c2ccc3ncccc3n2)n1 (10 µM) | inactive: 0 | inactive: 0 | inactive: 0 | inactive: 0 | inactive: 0 | inactive: 0 | inactive: 0 | inactive: 0 | 0 | 0 |
| C[C@@H]1C[C@H]2O[C@@]3(O[C@@H]2C(C)(C)O)[C@H](O)[C@@]2(C)[C@@H]4CC[C@H]5C(C)(C)[C@@H](O[C@@H]6OC[C@H](O)[C@H](O)[C@H]6O)CC[C@@]56C[C@@]46CC[C@]2(C)[C@@H]13 [Cimiracemoside C] (10 µM) | inactive: 0 | inactive: 0 | inactive: 0 | inactive: 0 | inactive: 0 | inactive: 0 | inactive: 0 | inactive: 0 | 0 | 0 |
| CC[C@@H]1C(=O)N(C)c2cnc(Nc3ccc(C(=O)N[C@H]4CC[C@H](N5CCN(CC6CC6)CC5)CC4)cc3OC)nc2N1C(C)C [Volasertib] (2.5 µM) | inactive: 0 | inactive: 0 | inactive: 0 | inactive: 0 | inactive: 0 | inactive: 0 | inactive: 0 | inactive: 0 | 0 | 0 |
| CN1CCN(CCCNc2ncc(Cl)c(-c3cc4c(C(=O)NC5CC5)cccc4s3)n2)CC1 (10 µM) | inactive: 0 | inactive: 0 | inactive: 0 | inactive: 0 | inactive: 0 | inactive: 0 | inactive: 0 | inactive: 0 | 0 | 0 |
| CCCCNC(=N)NC(=N)N [Buformin (hydrochloride)] (2.5 µM) | inactive: 0 | inactive: 0 | inactive: 0 | inactive: 0 | inactive: 0 | inactive: 0 | inactive: 0 | inactive: 0 | 0 | 0 |
| CC(CCc1ccccn1)(CCc1ccccn1)C(=O)c1ccccc1 (10 µM) | inactive: 0 | inactive: 0 | inactive: 0 | inactive: 0 | inactive: 0 | inactive: 0 | inactive: 0 | inactive: 0 | 2 | 0 |
| CC(C)C[C@H](NC(=O)[C@H](CCCCN)NC(=O)[C@H](CO)NC(=O)[C@@H](N)CC(C)C)C(N)=O [LSKL, Inhibitor of Thrombospondin (TSP-1) (TFA)] (10 µM) | inactive: 0 | inactive: 0 | inactive: 0 | inactive: 0 | inactive: 0 | inactive: 0 | inactive: 0 | inactive: 0 | 0 | 0 |
| c1ccc(-c2oc3ncnc(NC[C@@H]4CCCO4)c3c2-c2ccccc2)cc1 (2.5 µM) | inactive: 0 | inactive: 0 | inactive: 0 | inactive: 0 | inactive: 0 | inactive: 0 | inactive: 0 | inactive: 0 | 0 | 0 |
| CC(C)Oc1ccc(-c2cnc3c(-c4ccnc5ccccc45)cnn3c2)cc1 (10 µM) | inactive: 0 | inactive: 0 | inactive: 0 | inactive: 0 | inactive: 0 | inactive: 0 | inactive: 0 | inactive: 0 | 0 | 0 |
| CN(C)c1ncnc2nc[nH]c12 [6-(Dimethylamino)purine] (10 µM) | inactive: 0 | inactive: 0 | inactive: 0 | inactive: 0 | inactive: 0 | inactive: 0 | inactive: 0 | inactive: 0 | 0 | 0 |
| O=C1NC(=O)C(=Cc2ccc3c(c2)OCO3)S1 (10 µM) | inactive: 0 | inactive: 0 | inactive: 0 | inactive: 0 | inactive: 0 | inactive: 0 | inactive: 0 | inactive: 0 | 0 | 0 |
| Nc1[nH]c(=O)nc2c1ncn2[C@@H]1O[C@H](CO)[C@@H](O)[C@H]1O [Crotonoside] (10 µM) | inactive: 0 | inactive: 0 | inactive: 0 | inactive: 0 | inactive: 0 | inactive: 0 | inactive: 0 | inactive: 0 | 0 | 0 |

Complete entries from above. Order of values: kinase-Nluc reporter destabilization hit call (STK38)	kinase-Nluc reporter destabilization hit call (SYK)	kinase-Nluc reporter destabilization hit call (TEC)	kinase-Nluc reporter destabilization hit call (TYK2)	kinase-Nluc reporter destabilization hit call (ULK3)	kinase-Nluc reporter destabilization hit call (YES1)	kinase-Nluc reporter destabilization hit call (ZAK)	kinase-Nluc reporter destabilization hit call (ZAP70)	number of time points (ABL1)	number of time points (AKT1)
c1ccc(-c2oc3ncnc(NC[C@@H]4CCCO4)c3c2-c2ccccc2)cc1 (2.5 µM) in the list: inactive: 0	inactive: 0	inactive: 0	inactive: 0	inactive: 0	inactive: 0	inactive: 0	inactive: 0	0	0
CCCCNC(=N)NC(=N)N [Buformin (hydrochloride)] (2.5 µM) in the list: inactive: 0	inactive: 0	inactive: 0	inactive: 0	inactive: 0	inactive: 0	inactive: 0	inactive: 0	0	0
